We go through 49 compounds from US20180230398A1, “PERFUME SYSTEMS” (The Procter & Gamble Company, priority 2014, published 2018).

The nature of this series: Character description (odour character) of the PRMs of Table 1. To be noted: odour character in words.
On to `CC(=O)C1(C)CCC(C)=C(C)C1` (racemic) [Molecule 23, 1-(1-(R,S),3,4-trimethylcyclohex-3-en-1-yl)ethanone], for which the Character description result is reported as “fresh, citrus, herbal, woody”.

Take `CC(=O)OCC1CCC(C)=C(C)C1` (racemic) [Molecule 72, (R,S)-(3,4-dimethylcyclohex-3-enyl)methyl acetate]: the Character description entry is listed as “fruity (pear, strawberry), chewing gum”.

Turning to `CC1=C(C)CC(C#N)(C(C)C)CC1` (racemic) [Molecule 53, 1-(R,S)-isopropyl-3,4-dimethylcyclohex-3-enecarbonitrile], the Character description result is listed as “spicy, clean linen”.

With `CCC(C)(CC=C(C)C)C(C)=O` (racemic) [Molecule 17, 3-(R,S)-ethyl-3,6-dimethylhept-5-en-2-one], the Character description result is listed as “citrus, fruity, fresh”.

As for `COC(=O)C1(CC=C(C)C)CCC(C)=C(C)C1` (racemic) [Molecule 133, methyl 3,4-dimethyl-1-(R,S)-(3-methylbut-2-enyl)cyclohex-3-enecarboxylate], the Character description entry is reported as “citronella, clean”.

For the compound `CCCCC(=O)C(C)(C)CCC=C(C)C` [Molecule 1, 6,6,10-trimethylundec-9-en-5-one], the Character description entry was “green (geranium), vegetable, violet”.

For the compound `CCCC1(C(C)O)CCC(C)=C(C)C1` (racemic) [Molecule 49, 1-(3,4-dimethyl-1-(R,S)propyl-cyclohex-3-en-1-yl)ethanol], the Character description entry was “hay, carrotseed”.

Take `CC(=O)OC[C@H]1C(=C(C)C)CC[C@@H]1C` [Molecule 92, (R,S)-(2-methyl-5-(propan-2-ylidene)cyclopent-yl)methyl acetate]: the Character description result is “woody, violet”.

In the case of `CCC1(C(=O)CC(C)C)CCC(C)=C(C)C1` (racemic) [Molecule 58, 1-(1-(R,S)-ethyl-3,4-dimethyl-cyclohex-3-enyl)-3-methylbutan-1-one], the Character description result is “fruity, floral, herbal”.

As for `COC(=O)C1(C)CCC(C)=C(C)C1` (racemic) [Molecule 122, methyl 1-(R,S),3,4-trimethyl-cyclohex-3-enecarboxylate], the Character description result is “fresh, citrus, herbal (bergamot)”.

`CC(=O)C(C)(CC=C(C)C)C(C)C` (stereo not shown) [Molecule 3, 3-isopropyl-3,6-dimethylhept-5-en-2-one]: the Character description result was “herbal, aromatic”.

Regarding `CC(=O)OCC(C)(C)CC=C(C)C` [Molecule 107, 2,2,5-trimethylhex-4-enyl acetate], the Character description entry is “citrus, bergamot”.

For `CCCCOC(=O)C1CCC(C)=C(C)C1` (racemic) [Molecule 66, (R,S)-butyl 3,4-dimethylcyclohex-3-enecarboxylate], the Character description entry is “fruity, floral”.

Turning to `CCCCC(O)C(C)(CC)CC=C(C)C` (racemic) [Molecule 20, 6-(R,S)-ethyl-6,9-dimethyldec-8-en-5-ol], the Character description entry was “floral (lily of the valley)”.

For the compound `CCCC1(C(=O)OC)CCC(C)=C(C)C1` (racemic) [Molecule 130, methyl 3,4-dimethyl-1-(R,S)-propylcyclohex-3-enecarboxylate], the Character description entry is “violet, fruity, herbal”.

Turning to `COC(=O)[C@]1(C)CCC(C)[C@@H](C)C1` (stereo partly drawn) [Molecule 71, (R,S)-methyl 1,3,4-trimethylcyclohex-anecarboxylate], the Character description entry is given as “fruity (grapefruit)”.

Turning to `CC[C@](C)(CCC=C(C)C)[C@@H](C)O` (racemic) [Molecule 14, 3-(R,S)-ethyl-3,7-dimethyloct-6-en-2-(R,S)-ol], the Character description result is listed as “floral (lilac), clean”.

For the compound `CCOc1cc(C(=O)CC(C)C)ccc1O` [Molecule 34, 1-(3-ethoxy-4-hydroxyphenyl)-3-methylbutan-1-one], the Character description result is on record as “sweet balsamic, buttery”.

As for `CCCCC(=O)C1(C)CCC(C)=C(C)C1` (racemic) [Molecule 27, 1-(1-(R,S),3,4-trimethylcyclohex-3-en-1-yl)pentan-1-one], the Character description entry is listed as “woody, spicy”.

With `CCOc1cc(C(=O)C(C)(C)C)ccc1O` [Molecule 36, 1-(3-ethoxy-4-hydroxyphenyl)-2,2-dimethylpropan-1-one], the Character description result is listed as “sweet, dusty”.

On to `CCCC1(CO)CCC(C)=C(C)C1` (racemic) [Molecule 132, (3,4-dimethyl-1-(R,S)-propylcyclohex-3-enyl)methanol], for which the Character description result is on record as “terpenic, pine, woody”.

As for `CC(C)=CCC1(C#N)CCC(C)=C(C)C1` (racemic) [Molecule 24, 3,4-dimethyl-1-(R,S)-(3-methylbut-2-en-1-yl)cyclohex-3-enecarbonitrile], the Character description result is “mussel, terpenic”.

Take `CCCC1(C=O)CCC(C)=C(C)C1` (racemic) [Molecule 50, 3,4-dimethyl-1-(R,S)-propyl-cyclohex-3-enecarbaldehyde]: the Character description result is reported as “citrus, aldehydic”.

Turning to `CC(C)=CCCC(C)(C)/C(C)=N/O` [Molecule 4, (E,Z)-3,3,7-trimethyloct-6-en-2-one oxime], the Character description entry is on record as “green, earthy”.

Regarding `CC(C)=C1CC[C@H](C)[C@H]1C(C)(C)O` [Molecule 96, (R,S)-2-(2-methyl-5-(propan-2-ylidene)cyclopent-yl)propan-2-ol], the Character description entry was “woody, minty”.

`CCOC(=O)C1CCC(C)=C(C)C1` (racemic) [Molecule 105, (R,S)-ethyl 3,4-dimethylcyclohex-3-enecarboxylate]: the Character description result is listed as “fruity, herbal, spicy”.

Consider `CCCCC(=O)C(C)(CC)CCC=C(C)C` (racemic) [Molecule 13, 6-(R,S)-ethyl-6,10-dimethylundec-9-en-5-one], for which the Character description result is “herbal, floral”.

For `COC(=O)C1C(=C(C)C)CCC1C` (racemic) [Molecule 83, methyl 2-(R,S)-methyl-5(propan-2-ylidene)-cyclopentane-carboxylate], the Character description result is given as “fresh, peppermint”.

For `CCC1(C(=O)OC)CCC(C)=C(C)C1` (racemic) [Molecule 126, methyl 1-(R,S)-ethyl-3,4-dimethyl-cyclohex-3-enecarboxylate], the Character description entry is given as “fresh, fruity, floral”.

Take `CC(=O)OC[C@]1(C)CCC(C)[C@@H](C)C1` (stereo partly drawn) [Molecule 78, (R,S)-(1,3,4-trimethyl-cyclohexyl)meth-yl acetate]: the Character description result is listed as “fruity, herbal”.

On to `CCCOc1cc(C=O)ccc1O` [Molecule 33, 4-hydroxy-3-propoxybenz-aldehyde], for which the Character description result is recorded as “sweet, medicinal, mint”.

As for `C=CCC1(C=O)CCC(C)=C(C)C1` (racemic) [Molecule 51, 1-(R,S)-allyl-3,4-dimethyl-cyclohex-3-enecarbaldehyde], the Character description entry is recorded as “mint, herbal, tea, violet”.

As to `CC(C)=CCC1(C=O)CCC(C)=C(C)C1` (racemic) [Molecule 55, 3,4-dimethyl-1-(R,S)-(3-methylbut-2-enyl)cyclohex-3-enecarbaldehyde], the Character description entry was “floral (geranium)”.

Consider `CC1=C(C)CC(C)(CO)CC1` (racemic) [Molecule 131, (1-(R,S)-,3,4-trimethylcyclohex-3-enyl)methanol], for which the Character description entry is “woody”.

As for `COC(=O)C(C)(C)Cc1cccc(C)c1` [Molecule 102, methyl 2,2-dimethyl-3-m-tolylpropanoate], the Character description result is on record as “cyclamen, herbal”.

As to `Cc1ccc(C2C=CCCC2)o1` (racemic) [Molecule 7, 2-(cyclohex-2-en-1-(R,S)-yl)-5-methylfuran], the Character description result was “green (chervil), herbal”.

Turning to `CC1=C(C)C[C@](C)([C@@H](C)O)C(C)C1` (stereo partly drawn) [Molecule 86, (R,S)-1-(1,3,4,6-tetra-methylcyclohex-3-enyl)ethanol], the Character description result was “lilac”.

For `CCCCOC(=O)[C@@H]1CCC(C)[C@@H](C)C1` (stereo partly drawn) [Molecule 67, (R,S)-butyl 3,4-dimethylcyclohex-anecarboxylate], the Character description entry is listed as “fruity, floral”.

For `C=CCC1(CO)CCC(C)=C(C)C1` (racemic) [Molecule 135, (1-(R,S)-allyl-3,4-dimethyl-cyclohex-3-enyl)methanol], the Character description entry is listed as “pine, indolic”.

On to `C=CCC1(C#N)CCC(C)=C(C)C1` (racemic) [Molecule 44, 1-(R,S)allyl-3,4-dimethylcyclohex-3-enecarbonitrile], for which the Character description result was “green, violet”.

In the case of `CC1=C(C)CC(c2ccccc2)C(C=O)C1` (stereo not shown) [Molecule 118, 4,5-dimethyl-1,2,3,6-tetrahydro-[1,1′-biphenyl]-2-carbaldehyde], the Character description entry is given as “floral, fruity, cherry”.

Take `CC(=O)[C@]1(C)CC(C)=C(C)C[C@H]1C` (racemic) [Molecule 84, 1-(R,S)-(1,3,4,6-(R,S)-tetra-methylcyclohex-3-enyl)ethanone]: the Character description entry is recorded as “cedarwood”.

`Cc1ccccc1CC(C)(C)CO` [Molecule 112, 2,2-dimethyl-3-o-tolylpropan-1-ol]: the Character description entry is “disinfectant (toilet bowl cleaner)”.

Consider `CC1=C(C)CC(CO)CC1` (racemic) [Molecule 124, (3,4-dimethyl-(R,S)-cyclohex-3-enyl)methanol], for which the Character description entry was “floral (green lily)”.

As for `COC(=O)C(C)(C)Cc1ccc(C)cc1` [Molecule 108, methyl 2,2-dimethyl-3-p-tolylpropanoate], the Character description entry is given as “mushroom, chervil”.

Turning to `CC(=O)C1(C)CCCCC1C` (stereo not shown) [Molecule 91, 1-(1,2-dimethyl-cyclohexyl)ethan-one], the Character description entry is listed as “woody, earthy camphoraceous”.

Consider `CCCCC(O)C1(C)CCC(C)=C(C)C1` (racemic) [Molecule 43, 1-(1-(R,S)-methyl-3,4-dimethyl-cyclohex-3-en-1-yl)pentan-1-ol], for which the Character description entry is on record as “fruity, herbal, chamomile”.

`CC(C)C1(C#N)CC=CCC1` (racemic) [Molecule 82, 1-(R,S)-isopropylcyclohex-3-enecarbonitrile]: the Character description entry is listed as “spicy”.

As for `CC(C)=CCCc1ccc(C)o1` [Molecule 2, 2-methyl-5-(4-methylpent-3-en-1-yl)furan], the Character description result is “herbal, anisic, floral”.
